Laboratory results published in PubChem BioAssay AID540256 (National Center for Advancing Translational Sciences (NCATS), 2011).
The campaign covered roughly 300,000 compounds. About 3,700 (1.2%) were called active. Inconclusive means that the source gave no clear call. Such entries were picked first, then a sample of the others. Calls follow the shape of the full dose curve; tested in HEK293 cells. A potency beside an inconclusive call is a rough fit, not a confirmed value. Where a structure was tested more than once in an assay, its records may differ in their call.

experiment: qHTS for Inhibitors of binding or entry into cells for Lassa Virus; conditions: Lassa virus pseudotype entry inhibition, cell reporter; activity change, negative = inhibition: at 37.9 µM (top of the series) unless noted; also: nearly all actives have a fitted effect of over 50% in size
% is scaled to controls: 0 for no effect and ±100 for the full control effect; potency is read from the fitted curve at half-maximal effect.

| SMILES | Potency | activity change, negative = inhibition |
| --- | --- | --- |
| CCN(Cc1cc2cc(C)ccc2[nH]c1=O)C(=O)c1cccc(OC)c1 | inconclusive: 10 µM [inhibitor, partial curve] | – |
| NNc1nc2cccnc2n(CCNc2ncc(C(F)(F)F)cc2Cl)c1=O | inactive | – |
| COc1cc2c(cc1OC)/C(=C/c1ccc(Br)cc1)C(=O)OC2 | inconclusive: 0.461 µM [inhibitor, partial curve] | – |
| C/C(=N/NC(=O)c1ccoc1C)c1ccc(NC(=O)C2CCCC2)cc1 | inconclusive: 29.1 µM [inhibitor, single point] | – |
| COc1ccccc1C(CNC(=O)CNC(=O)c1ccc(C)c(C)c1)N1CCCC1 (stereo not drawn) | inactive | – |
| Nc1cc(=O)[nH]c(SCC(=O)NC2CCCCCCC2)n1 | inconclusive: 35.5 µM [inhibitor, single point] | – |
| CC1CCc2nc(/C(C#N)=C/c3ccncc3)sc2C1 (stereo not drawn) | inactive | – |
| C(=C\c1ccccc1)/CN1CCN(C(c2ccccc2)c2ccccc2)CC1 | active: 14.6 µM | – |
| CCCn1c(SCC(=O)/C(C#N)=C(\C)N)n[nH]c1=O | inconclusive: 23.1 µM [activator, single point] | – |
| COc1cccc(OCCNc2cc(N3CCCCC3)ccc2[N+](=O)[O-])c1 | inconclusive: 22.4 µM [inhibitor, single point] | – |
| COc1cc(C(=O)N2CCC(c3nc4ccccc4o3)CC2)cc(OC)c1OC | inactive | – |
| O=C(CNC(c1ccccc1)c1ccccc1)Nc1c(F)cccc1F | inconclusive: 8.2 µM [inhibitor, partial curve, poor fit] | – |
| O=C(NCCc1c[nH]c2ccccc12)C(=O)Nc1cc2c3c(c1)CC(=O)N3CCC2 | inconclusive: 1 µM [activator, single point] | – |
| COC(=O)c1ccc(CNC(=O)c2ccc3oc(C(C)C)nc3c2)cc1 | inconclusive: 0.447 µM [activator, single point] | – |
| CCc1nc(N)nc(N)c1-c1ccc(N(C)Cc2ccccc2)c([N+](=O)[O-])c1 | inconclusive: 1 µM [inhibitor, full curve, poor fit] | – |
| CCN(CC)S(=O)(=O)c1ccc(C(=O)Nc2ccc3c(c2)OCCO3)cc1 | inconclusive: 23.1 µM [inhibitor, single point] | – |
| Cc1ccc(C)c(NC(=O)Cn2c(=O)n(Cc3ccco3)c(=O)c3oc4ccccc4c32)c1 | inactive | – |
| CC(C)(C)n1[nH]c2c3c(ccc2c1=O)C(=O)c1ccccc1C3=O | inconclusive: 14.6 µM [inhibitor, single point] | – |
| CCOC(=O)C(CC)Sc1nnc2c3cc(C)ccc3n(C)c2n1 (stereo not drawn) | inconclusive: 29.1 µM [inhibitor, single point] | – |
| COc1ccc(N(C)C(=O)c2cc3c(Cl)nc4ccccc4c3s2)cc1 | inconclusive: 1 µM [inhibitor, full curve, poor fit] | – |
| CCOc1cc(-c2nc3c(c(CC)nn3-c3ccccc3)c3cc(OC)c(OC)cc23)ccc1O | inactive | – |
| COc1ccc2c(c1)c(CC(=O)O)c(C)n2C(=O)c1ccc(Cl)cc1 | inactive | – |
| Cc1ccc(NC(=O)C(OC(=O)c2cnc(C)cn2)c2ccccc2)c([N+](=O)[O-])c1 (stereo not drawn) | inactive | – |

Retrieved one by one from the entries so far:

| SMILES | Potency | activity change, negative = inhibition |
| --- | --- | --- |
| CCN(CC)S(=O)(=O)c1ccc(C(=O)Nc2ccc3c(c2)OCCO3)cc1 | inconclusive: 23.1 µM [inhibitor, single point] | – |
| COc1ccc2c(c1)c(CC(=O)O)c(C)n2C(=O)c1ccc(Cl)cc1 | inactive | – |
| CCc1nc(N)nc(N)c1-c1ccc(N(C)Cc2ccccc2)c([N+](=O)[O-])c1 | inconclusive: 1 µM [inhibitor, full curve, poor fit] | – |

Some of the entries so far, comma-delimited.
SMILES,Potency,"activity change, negative = inhibition"
CCN(CC)S(=O)(=O)c1ccc(C(=O)Nc2ccc3c(c2)OCCO3)cc1,"inconclusive: 23.1 µM [inhibitor, single point]",–
Cc1ccc(C)c(NC(=O)Cn2c(=O)n(Cc3ccco3)c(=O)c3oc4ccccc4c32)c1,inactive,–

More compounds follow:

| SMILES | Potency | activity change, negative = inhibition |
| --- | --- | --- |
| COc1ccc(C(=O)/C(C#N)=N/Nc2ccccc2[N+](=O)[O-])cc1 | inconclusive: 1.58 µM [inhibitor, partial curve, poor fit] | – |
| Cc1ccc(CN2C(=O)C(O)(c3c[nH]c4ccccc34)c3cc(Cl)ccc32)cc1 (stereo not drawn) | inconclusive: 14.1 µM [inhibitor, single point] | – |
| Cc1ccc(-c2nnc(SCc3ccccc3C#N)o2)cc1 | inactive | – |
| O=C(O)C(c1ccccc1)C(O)C1CCCC1 (stereo not drawn) | inactive | – |
| CCOC(=O)c1c(NC(=O)c2ccccc2Cl)sc2c1CCCC2 | – | inconclusive: 10.9% [activator] [at 46.1 µM] |
| CCCCCn1c(=N)c(S(=O)(=O)c2ccc(Cl)cc2)cc2c(=O)n3cccc(C)c3nc21 | inconclusive: 0.501 µM [activator, full curve, poor fit] | – |
| NC(=O)c1ccc(N2CCN(S(=O)(=O)c3ccccc3)CC2)c([N+](=O)[O-])c1 | active: 2 µM | – |
| CCn1c(SCC(=O)Nc2nc3ccc(C)cc3s2)nc2c(c1=O)SC(C)C2 (stereo not drawn) | inactive | – |
| COc1ccccc1OCc1nnc(SCC(=O)N2CCCCC2)n1-c1ccccc1 | inactive | – |
| CCCc1nc([N+](=O)[O-])c(S(=O)(=O)c2ccccc2)n1CC(C)C | inconclusive: 31.6 µM [inhibitor, single point] | – |
| COCCN(CCOC)C(=O)c1ccc(CSc2nc3ccccc3s2)cc1 | inconclusive: 11.2 µM [inhibitor, partial curve, poor fit] | – |
| Cn1c(=O)[nH]c(=O)c2c1nc(SCCC(=O)O)n2Cc1cccc(Br)c1 | inactive | – |
| S=C(NCc1ccccn1)NN=Cc1ccccn1 | active: 12.6 µM | – |
| CN(C)/C=N/c1ncc(C(=O)c2ccc(-c3ccccc3)cc2)s1 | inconclusive: 17.8 µM [inhibitor, partial curve, poor fit] | – |
| COc1ccc(C(=O)NNC(=O)c2ccccc2[N+](=O)[O-])cc1Br | inconclusive: 20 µM [inhibitor, partial curve, poor fit] | – |
| COc1ccc(OC)c(-c2cc(C3CCN(C(=O)OC(C)(C)C)CC3)[nH]n2)c1 | inconclusive: 12.6 µM [inhibitor, single point] | – |
| COc1ccc(NC2CC(=O)N(c3cc([N+](=O)[O-])ccc3C)C2=O)cc1 (stereo not drawn) | inactive | – |
| COc1ccc(N(C)S(=O)(=O)c2cccc(C(=O)NCC3CCCO3)c2)cc1 (stereo not drawn) | inconclusive: 35.5 µM [inhibitor, single point] | – |
| Cc1ccc(OCCOC(=O)c2cc(S(=O)(=O)N3CCCCC3)ccc2N2CCOCC2)cc1 | inconclusive: 35.5 µM [inhibitor, single point] | – |
| Cc1nnc2n1CCCCC2 | inconclusive: 35.5 µM [inhibitor, single point] | – |
| CCCC(=O)NC(Oc1ccc(C(C)=O)cc1)C(Cl)(Cl)Cl (stereo not drawn) | inconclusive: 1.58 µM [inhibitor, full curve, poor fit] | – |
| COc1ccc(C(=O)c2cn(Cc3ccc(F)cc3)c3ccc(C)cc3c2=O)cc1 | inconclusive: 35.5 µM [inhibitor, single point] | – |
| Cn1cc(C(=O)N/N=C/C(Br)=C\c2ccccc2)ccc1=O | inconclusive: 14.1 µM [inhibitor, single point] | – |

| SMILES | Potency | activity change, negative = inhibition |
| --- | --- | --- |
| COc1cc(/C=N/Nc2snc(SC)c2C#N)cc(OC)c1OC | active: 1.26 µM | – |
| COc1ccc(C(=O)COC(=O)c2cccc(NC(=O)c3ccc(OC)c(OC)c3)c2)cc1 | inconclusive: 35.5 µM [inhibitor, single point] | – |
| COc1ccc(-c2cn3c4c(sc3n2)CCCC4)cc1 | inactive | – |
| CCN(CC)CCNC(=O)C1CCCCN1S(=O)(=O)c1cccc([N+](=O)[O-])c1 (stereo not drawn) | inconclusive: 3.16 µM [inhibitor, partial curve, poor fit] | – |
| O=C(N/N=C/c1ccc[nH]1)c1cccc([N+](=O)[O-])c1 | inconclusive: 4.47 µM [inhibitor, partial curve, poor fit] | – |
| Cc1ccc(-c2c3c(=O)n(C)c(=O)n(C)c3cn2-c2ccccc2O)cc1 | inconclusive: 7.94 µM [inhibitor, partial curve] | – |
| CC(=O)Nc1sc(C)c(C)c1C(=O)OCC(=O)N(CC(C)C)c1c(N)n(Cc2ccccc2)c(=O)[nH]c1=O | inactive | – |
| COc1ccc(C(=O)N2CCOC23CCN(c2ncccn2)CC3)cc1 | inconclusive: 17.8 µM [inhibitor, single point] | – |
| Nc1nc2ccc(OC(F)(F)F)cc2s1 | inconclusive: 4.11 µM [activator, full curve] | – |
| N#Cc1cccc(NC(=O)CSc2ccc3c4c(cccc24)C(=O)c2ccccc2-3)c1 | inconclusive: 2.24 µM [activator, partial curve] | – |
| CCN(CC(=O)NCc1ccc(Cl)cc1)C(=O)COc1ccc(C)cc1C | inactive | – |
| C=CCn1c(=N)c(C(=O)NCCCOC)cc2c(=O)n3cccc(C)c3nc21 | inactive | – |
| Cc1cc(OCC(=O)c2ccc(F)cc2)ccc1N1C(=O)CCC1=O | inactive | – |
| CCCCCNC(=O)CC1Nc2c3ccccc3nc(=S)n2C1=O (stereo not drawn) | inconclusive: 6.51 µM [activator, single point] | – |
| COc1cc(/C=C/C(=O)OCC(=O)Nc2ccc(NC(C)=O)cc2)cc(S(=O)(=O)N2CCc3ccccc32)c1OC | inconclusive: 1.78 µM [inhibitor, full curve] | – |
| c1ccc(CCN2CN=C(Nc3nc4ccccc4o3)NC2)cc1 | inconclusive: 2.91 µM [activator, partial curve, poor fit] | – |
| CC(=O)N(C)c1ccc(OCC(O)Cn2c3ccc(Cl)cc3c3cc(Cl)ccc32)cc1 (stereo not drawn) | inconclusive: 35.5 µM [inhibitor, single point] | – |
| Cn1c(=O)c2c(-c3cccc(Br)c3)n(CCO)cc2n(C)c1=O | inactive | – |
| COC(=O)c1ccc(N(CC(=O)NC2CCCC2)C(=O)CNC(=O)c2cccs2)cc1 | inconclusive: 6.31 µM [inhibitor, single point] | – |
| Cc1cc(C(=O)OCC(=O)N(CC(C)C)c2c(N)n(Cc3ccccc3)c(=O)[nH]c2=O)c(C)o1 | inconclusive: 11.2 µM [inhibitor, partial curve, poor fit] | – |
| Cc1ccc(-c2cccc(C(=O)NCc3ccccc3)n2)c2ccccc12 | inconclusive: 6.51 µM [inhibitor, partial curve, poor fit] | – |
| Cc1cc(NC(=O)/C=C/c2cccc(F)c2)n(-c2nc3ccccc3[nH]2)n1 | inactive | – |
